Residue numbers refer to the chain shown, from its start. For at least one entry, the source does not settle the construct or the ends of the probe. For some of these results: No signal at the amounts used counts as a negative. For some of these results: Where a protein sequence is shown, tags need not be part of it. For some of these results: A weaker result is weaker than the reference pair of the same experiment.
Columns and labels:
Test in all cases: SPR
[1] = target: T1, ParB (Caulobacter crescentus) (UniProt B8GW30); conditions: SPR (ReDCaT, Biacore T200), HBS-EP+: 10 mM HEPES pH 7.4, 150 mM NaCl, 3 mM EDTA, 0.005% Surfactant P20, 25 C, ParB given as dimer, recombinant protein, protein details: C-terminal His6, label: biotin via captured ReDCaT linker
T1 sequence (looked up, limits assumed): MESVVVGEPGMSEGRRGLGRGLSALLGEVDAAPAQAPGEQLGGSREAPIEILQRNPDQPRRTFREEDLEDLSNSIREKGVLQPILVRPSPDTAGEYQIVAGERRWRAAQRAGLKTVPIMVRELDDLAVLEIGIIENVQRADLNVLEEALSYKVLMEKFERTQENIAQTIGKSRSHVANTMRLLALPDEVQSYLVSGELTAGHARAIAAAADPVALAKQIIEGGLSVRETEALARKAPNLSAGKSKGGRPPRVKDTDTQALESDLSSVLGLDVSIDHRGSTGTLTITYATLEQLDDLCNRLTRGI

Chains of the proteins cited; added tags and fusions are not shown. Lines headed by an entry give the natural chain unless they say otherwise; changes in a name come on top.
UniProt P26497: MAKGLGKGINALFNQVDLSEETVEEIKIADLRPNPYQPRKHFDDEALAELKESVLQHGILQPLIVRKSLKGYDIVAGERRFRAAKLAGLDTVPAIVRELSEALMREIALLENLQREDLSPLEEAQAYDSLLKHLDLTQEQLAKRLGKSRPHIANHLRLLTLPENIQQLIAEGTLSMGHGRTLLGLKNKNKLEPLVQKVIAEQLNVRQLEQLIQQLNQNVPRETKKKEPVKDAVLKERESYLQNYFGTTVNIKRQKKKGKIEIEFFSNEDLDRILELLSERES

[2] = target: Spo0J (ParB) (Bacillus subtilis) (UniProt P26497); conditions: apparent Kd; SPR (ReDCaT, Biacore T200), HBS-EP+: 10 mM HEPES pH 7.4, 150 mM NaCl, 3 mM EDTA, 0.005% Surfactant P20, 25 C; ParB given as dimer; recombinant protein; label: biotin via captured ReDCaT linker
[3] = target: T2, ParB (G101S) (Caulobacter crescentus) (UniProt B8GW30); conditions: 200 nM protein, binds as well as wild type; SPR (ReDCaT, Biacore T200), HBS-EP+: 10 mM HEPES pH 7.4, 150 mM NaCl, 3 mM EDTA, 0.005% Surfactant P20, 25 C; ParB given as dimer; recombinant protein; protein details: C-terminal His6; label: biotin via captured ReDCaT linker
T2 sequence (looked up, limits assumed): T1 sequence (looked up, limits assumed) with G101S

[4] = target: T3, ParB (R104A) (Caulobacter crescentus) (UniProt B8GW30); conditions: 200 nM protein, binds as well as wild type; SPR (ReDCaT, Biacore T200), HBS-EP+: 10 mM HEPES pH 7.4, 150 mM NaCl, 3 mM EDTA, 0.005% Surfactant P20, 25 C; ParB given as dimer; recombinant protein; protein details: C-terminal His6; label: biotin via captured ReDCaT linker
T3 sequence (looked up, limits assumed): T1 sequence (looked up, limits assumed) with R104A

“CCCGCCGCCCCCGTGAAACGTCCG / CGGACGTTTCACGGGGGCGGCGGGCCTACCCTACGTCCTCCTGC [parS site 6]”: binds more weakly ([1]; Kd not determined).

“GGCTACACGACGTCTCGCTCACTA / TAGTGAGCGAGACGTCGTGTAGCCCCTACCCTACGTCCTCCTGC [scrambled parS (Scramble3)]”: no binding ([1]; almost no or very weak binding).

“ATGCCAAGCCCCGTGGAACAGTTG / CAACTGTTCCACGGGGCTTGGCATCCTACCCTACGTCCTCCTGC [parS site 1]”: binds more weakly ([1]; Kd not determined).

“CAATAATAGACCGTAGTGAGAACA / TGTTCTCACTACGGTCTATTATTGCCTACCCTACGTCCTCCTGC [B. subtilis scrambled parS]” showed a Kd [2] of 183 nM.

For “GGGATGTTCCACGTGAAACATCAC / GTGATGTTTCACGTGGAACATCCCCCTACCCTACGTCCTCCTGC [parS site 4]”, the binding result [3] was “binds”, the binding result [4] was “binds” and the Kd [1] was 30 nM.
